# According to PubChem BioAssay AID1671190 (National Center for Advancing Translational Sciences (NCATS), 2021):
# Amino acid sequences for entries named in this document (tags omitted). A change or cut given only in a name is not applied to a line headed by its entry.
# UniProt P18054: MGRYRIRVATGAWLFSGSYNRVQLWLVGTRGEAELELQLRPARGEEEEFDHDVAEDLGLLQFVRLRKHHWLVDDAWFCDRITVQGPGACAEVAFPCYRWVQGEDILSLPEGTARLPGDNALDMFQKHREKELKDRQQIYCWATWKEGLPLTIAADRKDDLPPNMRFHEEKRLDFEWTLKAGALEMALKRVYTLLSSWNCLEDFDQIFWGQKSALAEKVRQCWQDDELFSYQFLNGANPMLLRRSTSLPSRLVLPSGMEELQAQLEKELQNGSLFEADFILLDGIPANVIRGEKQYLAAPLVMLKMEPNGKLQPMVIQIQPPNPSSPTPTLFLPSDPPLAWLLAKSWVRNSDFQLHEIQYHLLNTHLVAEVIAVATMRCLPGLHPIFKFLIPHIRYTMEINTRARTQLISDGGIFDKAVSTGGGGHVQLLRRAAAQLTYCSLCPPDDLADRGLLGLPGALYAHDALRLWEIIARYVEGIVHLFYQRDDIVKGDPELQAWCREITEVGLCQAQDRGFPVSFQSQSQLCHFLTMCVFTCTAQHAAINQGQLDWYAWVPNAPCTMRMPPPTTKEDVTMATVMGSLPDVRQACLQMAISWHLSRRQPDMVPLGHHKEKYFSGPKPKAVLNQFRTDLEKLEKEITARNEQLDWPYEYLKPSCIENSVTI
# Hit rate of the full screen: of about 580,000 compounds, about 6,100 (1.1%) were called active. The shares of active, inactive and inconclusive entries below differ from those in the screen. Calls follow the shape of the dose curve; as a rule, active = well fitted inhibition curve with a large enough effect; inconclusive = small, poorly fitted or top-dose-only effect, or another doubt; inactive = no such curve, though single readings can be large or run the other way. A potency beside an inconclusive call is a rough fit, not a confirmed value.
# Target: Polyunsaturated fatty acid lipoxygenase ALOX12 (Homo sapiens) (UniProt P18054)
# Test: Primary qHTS assay for inhibitors of human arachidonate 12S-lipoxygenase (ALOX12): Round 2
# Conditions: purified 12hLO, xylenol orange hydroperoxide absorbance; activity change, negative = inhibition: at 108 µM (top of the series) unless noted
# In short: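 Hydroperoxide product was detected by ferrous iron/xylenol orange as the 573 to 405 nm absorbance ratio. Arachidonic acid at 40 uM (final) was turned over for 30 min at room temperature by 150 nM human 12hLO, pH 7.0 Hepes buffer, after 15 min compound preincubation.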
# % is scaled to controls: 0 for no effect and ±100 for the full control effect; potency is read from the fitted curve at half-maximal effect.
SMILES,Potency,"activity change, negative = inhibition"
O=C(CCC1N=C2c3ccccc3N=C(SCC(=O)NCc3ccco3)N2C1=O)NCc1ccco1 (stereo not given),"inconclusive: 112 µM [inhibitor, single point]",
Cc1ccc2nc(SCC(=O)NC3CC3)[nH]c2c1,,inactive: -6.31%
O=C(NC1CCCCC1)C1CCN(C2=NS(=O)(=O)c3ccccc32)CC1,,inactive: -25.1%
Cc1ccc(N2CCN(C(=S)c3ccc(-c4ccccc4[N+](=O)[O-])o3)CC2)cc1,"inconclusive: 89.1 µM [inhibitor, partial curve, poor fit]",
CCCN(CC(=O)Nc1ccc(-c2ccccc2)cc1)Cc1nnc(-c2ccco2)o1,,inactive: 28.8%
CC(=O)c1c(N2CCOCC2)nc(=S)n(-c2cc(C)ccc2C)c1C,,inactive: -29.5% [at 57.4 µM]
Cc1cccc(/C=N/NC(=O)CCc2ccccc2)c1,,inactive: -25.2%
O=C(CCc1ncc(-c2ccccc2)o1)NCCc1cccc(F)c1,,inactive: -3.59%
CC(C)NC(=O)CN1CCN(C(=O)CCl)CC1,"inconclusive: 31.6 µM [inhibitor, single point]",
CCOc1cc(/C=C2\SC(=S)N(NS(=O)(=O)c3ccc(C)cc3)C2=O)ccc1O,"inconclusive: 112 µM [inhibitor, single point]",
CCN(CC)C(=O)C1CCCN(c2ccc([N+](=O)[O-])cc2)C1 (stereo not given),"inconclusive: 89.1 µM [inhibitor, single point]",
Cc1cc(OCCCCn2ccnc2)cc(C)c1Cl,,inactive: -3.61%
O=c1c2ccccc2sc2nc(C3CCCCC3)n(Cc3ccco3)c(=O)c12,"inconclusive: 35.5 µM [inhibitor, partial curve, poor fit]",
COc1ccc([C@@H]2CC(=O)C3=C(C2)Nc2[nH][nH]c(=O)c2[C@H]3c2cccc(Br)c2)cc1OC,"inconclusive: 50.1 µM [inhibitor, partial curve, poor fit]",
COc1ccc(S(=O)(=O)N(CCc2ccccc2)CC(=O)O)cc1Cl,"inconclusive: 1.58 µM [inhibitor, full curve, poor fit]",
COc1ccccc1S(=O)(=O)N(C)C[C@@H]1OCc2cnnn2CCCC(=O)N([C@@H](C)CO)C[C@@H]1C,"inconclusive: 100 µM [inhibitor, single point]",
c1ccc(CCNc2nc(-c3ccccc3)cs2)cc1,"inconclusive: 126 µM [inhibitor, single point]",
Cc1ccc2nsnc2c1NC(=O)c1ccc(Cl)cc1Cl,,inactive: -6.26%
NC(=O)C1CCN(c2nc(-c3cc4ccccc4o3)cs2)CC1,"inconclusive: 44.7 µM [inhibitor, partial curve]",
O=C(c1ccccc1F)N1CCn2c(nnc2C2CCNCC2)C1,"inconclusive: 15.8 µM [inhibitor, full curve]",
CC(C)CC(=O)/C=C/n1c(=S)oc2ccccc21,,inactive: 9.78%
CSc1cccc(NC(=O)C2CCN(S(=O)(=O)c3ccc4[nH]c5c(c4c3)CCCCC5)CC2)c1,"inconclusive: 100 µM [inhibitor, partial curve, poor fit]",

# Gathered by group: the compounds so far with an aryl thioether with sulfur outside any ring
SMILES,Potency,"activity change, negative = inhibition"
Cc1ccc2nc(SCC(=O)NC3CC3)[nH]c2c1,,inactive: -6.31%
CSc1cccc(NC(=O)C2CCN(S(=O)(=O)c3ccc4[nH]c5c(c4c3)CCCCC5)CC2)c1,"inconclusive: 100 µM [inhibitor, partial curve, poor fit]",

# Additional entries follow.

SMILES,Potency,"activity change, negative = inhibition"
CCOc1cc(S(=O)(=O)NCc2ccc3c(c2)OCO3)ccc1F,"inconclusive: 14.1 µM [inhibitor, partial curve, poor fit]",
CC(=O)Oc1ccc(C(=O)Nc2ccccc2C(=O)Nc2ccc(C(=O)O)cc2)cc1,active: 4.47 µM,
CCOC(=O)Cc1csc(NC(=O)c2cc(C)c(C)s2)n1,"inconclusive: 35.5 µM [inhibitor, partial curve, poor fit]",
Cc1ccc(-n2ncc3c2CC(C)(C)CC3NC(=O)CCCN2CCCC2=O)cc1 (stereo not given),,inactive: 11.1%
O=C(Nc1ccc(C(=O)N2CCC(O)(c3ccc(Cl)c(C(F)(F)F)c3)CC2)cc1)c1ccc(Br)o1,"inconclusive: 44.7 µM [inhibitor, partial curve, poor fit]",
CCN1CCN(S(=O)(=O)c2ccc(Cl)c(C(=O)N(C)Cc3ccc(C(C)(C)C)cc3)c2)CC1,"inconclusive: 44.7 µM [inhibitor, partial curve, poor fit]",
CCN=C1NC(c2ccc(C(F)(F)F)cc2)C(C(=O)OC)=C(C)N1Cc1ccccc1C(F)(F)F (stereo not given),"inconclusive: 50.1 µM [inhibitor, partial curve, poor fit]",
COc1cccc(NC(=O)Cn2c(N3CCc4ccccc4C3)nc(C)cc2=O)c1,active: 28.2 µM,
CC1(C)[C@H]2CC[C@]1(C)[C@@H](OC(=O)C[N+]1(C)CCOCC1)C2,"inconclusive: 100 µM [inhibitor, single point]",
COCC(=O)Nc1ccc(-c2c(-c3cccc(OC)c3)nn(-c3ccccc3)c2OC(C)=O)cc1,"inconclusive: 20 µM [inhibitor, single point]",
O=C(CSc1nc(-c2ccc(F)cc2)nc2c1Cc1ccccc1O2)Nc1ccc(C(=O)O)cc1,"inconclusive: 28.2 µM [inhibitor, partial curve, poor fit]",
CC(=O)Nc1nc2c(C)cc(NS(=O)(=O)c3ccc(F)cc3)cc2s1,"inconclusive: 31.6 µM [inhibitor, partial curve, poor fit]",
N#C/C(=C\c1c[nH]c2ccccc12)C(=O)NC1CC1,"inconclusive: 28.2 µM [inhibitor, partial curve, poor fit]",
Cc1ccc(SC2CC(C)OC2=O)cc1C (stereo not given),"inconclusive: 141 µM [inhibitor, partial curve, poor fit]",
O=C(NCc1ccccn1)C1CCN(C(=O)c2ccc(C(F)(F)F)cc2)CC1,,inactive: -3.02%
CC1C(=O)N(Cc2cn(Cc3ccco3)nn2)CCS(=O)(=O)N1Cc1ccc(-c2ccc(F)nc2)cc1 (stereo not given),"inconclusive: 50.1 µM [inhibitor, partial curve, poor fit]",
CCC(C)Sc1cc(C(F)(F)F)c(C(=O)Nc2ccc(Cl)cc2)cn1 (stereo not given),"inconclusive: 112 µM [inhibitor, partial curve, poor fit]",
CC(C)(C)NC(=O)C(c1ccco1)N(C(=O)c1ccc(CN2CCOCC2)o1)c1ccccc1 (stereo not given),,inactive: 4.87%
CC(=O)Oc1ccc2c(c1)O/C(=C\c1cccs1)C2=O,"inconclusive: 50.1 µM [inhibitor, partial curve, poor fit]",
COc1ccc(OC)c(CNc2sc3c(c2C(=O)Nc2cc(OC)ccc2OC)CCCC3)c1,"inconclusive: 44.7 µM [inhibitor, partial curve, poor fit]",
Nc1c(-c2cccc(Cl)c2)cnn1-c1cccc(C(F)(F)F)c1,"inconclusive: 0.0891 µM [inhibitor, full curve, poor fit]",
O=C(Nc1ccccc1F)c1ccccc1C(=O)Nc1ccccc1F,,inactive: 40.2%

SMILES,Potency,"activity change, negative = inhibition"
CCCC12CN3CC(CCC)(CN(C1)C3c1ccco1)C2=O (stereo not given),"inconclusive: 28.2 µM [inhibitor, partial curve, poor fit]",
C=CCn1c(-c2ccccc2)c[nH]c1=S,"inconclusive: 10 µM [inhibitor, full curve, poor fit]",
Fc1ccc2[nH]cc(CCNC(=S)Nc3ccc(Nc4ccccc4)cc3)c2c1,"inconclusive: 63.1 µM [inhibitor, partial curve, poor fit]",
CC(C)Cn1cc(C(=O)N2CCN(c3cccc(Cl)c3)CC2)c2c3ccccc3n(C)c2c1=O,,inactive: -20.2%
Cc1ccc(NC(=O)CN2C(=O)CN(C)C2=O)cc1S(=O)(=O)N1CCCCC1,"inconclusive: 1.26 µM [inhibitor, full curve, poor fit]",
CC1=C(C#N)C(c2ccccc2C)C(C#N)=C(C)N1,"inconclusive: 56.2 µM [inhibitor, partial curve, poor fit]",
O=[N+]([O-])c1ccc(-c2nc(Cl)c3c(n2)CCCC3)o1,,inactive: 0.007%
Clc1ccc2[nH]cc(-c3nnnn3-c3ccccc3)c2c1,"inconclusive: 89.1 µM [inhibitor, single point]",
CC(C)CC(=O)NC(=S)Nc1ccccc1N1CCCC1,"inconclusive: 100 µM [inhibitor, single point]",
CC(=O)N1CCCc2cc(S(=O)(=O)N3CCCC(C(=O)Nc4cccc(Cl)c4C)C3)ccc21 (stereo not given),"inconclusive: 126 µM [inhibitor, single point]",
COc1ccc2nc3n(c(=O)c2c1)-c1ncccc1C(=O)NC3Cc1ccccc1 (stereo not given),"inconclusive: 112 µM [inhibitor, single point]",
COc1cc(OC)c(OC)cc1CN1CCN(Cc2ccc(C(F)(F)F)cc2)CC1,"inconclusive: 0.355 µM [inhibitor, full curve, poor fit]",
CCOC(=O)c1ccc(NCc2ccnc(N3CCOCC3)c2)nc1,"inconclusive: 63.1 µM [inhibitor, partial curve, poor fit]",
CN(Cc1cccc(O)c1)C(=O)[C@H]1C[C@@H](C(=O)O)N(C)[C@H]1c1ccccc1F,"inconclusive: 8.91 µM [inhibitor, full curve]",
Cc1ccc(NC(=O)c2c(C(F)(F)F)nn(C)c2SCc2cccc(C(F)(F)F)c2)cc1C,,inactive: 0%
COc1ccc(-n2c(NN)nc3sc4c(c3c2=O)CCCC4)cc1,,inactive: -2.34%
CCCc1nc2c(-c3ccccc3)c(C)[nH]n2c(=O)c1Cl,,inactive: -29.1%
O=C(CCc1cc(Cl)no1)N(CCS(=O)(=O)N1CCOCC1)Cc1ccncc1,"inconclusive: 0.708 µM [inhibitor, full curve]",
Cc1nc(Nc2ccc(F)cc2F)sc1C(=O)Nc1ccccc1,"inconclusive: 63.1 µM [inhibitor, single point]",
Cc1cnc(SCc2ccccn2)nc1C1CCCN(C(=O)c2noc3c2CCCC3)C1 (stereo not given),"inconclusive: 112 µM [inhibitor, single point]",
O=C(Nc1ccc(Cl)cc1)Nc1cnccn1,,inactive: -1.11%

# Among those listed so far, these contain a cyano group:
SMILES,Potency,"activity change, negative = inhibition"
N#C/C(=C\c1c[nH]c2ccccc12)C(=O)NC1CC1,"inconclusive: 28.2 µM [inhibitor, partial curve, poor fit]",
CC1=C(C#N)C(c2ccccc2C)C(C#N)=C(C)N1,"inconclusive: 56.2 µM [inhibitor, partial curve, poor fit]",
